Test results from publication PMC9243175.
These are yes or no findings as the source states them, for the method shown. A result given as binding can be weak or reduced; the word gives no strength. Where a sequence is shown, tags or fusion partners need not be part of it.

Molecular target: T1, GST-tagged HCN1c40 protein (C-terminal 40 amino acids of HCN1) (UniProt O88704)
T1 sequence: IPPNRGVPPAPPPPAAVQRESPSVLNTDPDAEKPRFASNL
Assay: AlphaScreen or HTRF; 20 nM GST-HCN1c40 and 200 nM His-TRIP8b(241-602) incubated 3 h with varying concentrations of the compound NUCC-0200590; anti-GST acceptor beads 1.5 h, then nickel chelate donor beads 1.5 h; both purified

Substance: His-tagged TRIP8b (241–602) (domain or fragment)
- binding: binds
